Experimental findings from PMC5732788 are described below.

The chains behind the UniProt entries cited, without tags or fusion partners.
UniProt P67809: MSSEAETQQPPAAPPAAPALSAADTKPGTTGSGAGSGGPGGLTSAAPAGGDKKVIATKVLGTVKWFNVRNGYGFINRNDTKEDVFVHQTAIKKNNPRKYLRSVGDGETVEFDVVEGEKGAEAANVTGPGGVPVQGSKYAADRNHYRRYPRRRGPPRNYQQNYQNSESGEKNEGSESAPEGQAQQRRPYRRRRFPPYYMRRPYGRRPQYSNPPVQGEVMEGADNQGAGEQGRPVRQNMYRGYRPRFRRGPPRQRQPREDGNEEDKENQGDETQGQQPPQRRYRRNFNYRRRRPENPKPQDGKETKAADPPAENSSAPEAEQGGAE

Results are given in words; binding and its absence hold for the method and conditions named. Binding seen in cells or lysates may run through a third protein. A yes stands for co-enrichment or nearness to the bait. Other partners may have been found.

This test concerns the target T1, WAVE3 (human (endogenous in MDA-MB-231)) (UniProt Q9UPY6).
T1 sequence: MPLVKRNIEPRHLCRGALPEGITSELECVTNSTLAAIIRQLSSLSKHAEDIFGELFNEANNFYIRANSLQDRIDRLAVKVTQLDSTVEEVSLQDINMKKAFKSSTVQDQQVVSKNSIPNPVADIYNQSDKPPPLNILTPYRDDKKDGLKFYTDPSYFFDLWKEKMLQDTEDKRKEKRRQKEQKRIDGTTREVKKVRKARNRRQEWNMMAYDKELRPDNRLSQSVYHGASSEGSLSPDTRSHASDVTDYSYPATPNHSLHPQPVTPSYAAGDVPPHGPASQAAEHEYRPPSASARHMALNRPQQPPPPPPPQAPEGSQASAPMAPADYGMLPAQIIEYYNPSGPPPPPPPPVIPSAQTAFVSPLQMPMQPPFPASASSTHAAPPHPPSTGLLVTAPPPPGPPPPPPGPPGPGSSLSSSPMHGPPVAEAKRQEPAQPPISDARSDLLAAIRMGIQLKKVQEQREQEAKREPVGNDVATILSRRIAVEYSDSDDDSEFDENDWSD
Briefly: affinity purification with mass spectrometry; WAVE3 immunocomplexes isolated from MDA-MB-231 lysates; gel bands digested with trypsin, LC-MS/MS, Mascot search.

With “Y-box binding protein-1 (from UniProt P67809 1-324)”, the binding result was “binds”.
